# Experimental data as given in PubChem BioAssay AID248 (DTP/NCI, 2004).
# The list shows only some results of the screen, not a fair sample: its compounds were picked by chemical class. Not every dose and run of a compound is shown. T/C is the treated group as % of the vehicle group. Where survival is the endpoint, this PubChem deposit counts one and a half times the control or more as active, and values a quarter to a half above the control carry no call in these data; other NCI protocols may use other cut-offs. Some entries show no survivor count and are marked so; the dose need not have been tolerated. Schedules are NCI's codes, read here as Q, the interval in days (D) or hours (H), X, the number of doses. Some entries hold several experiments; their values stand side by side, smallest first. Some schedules carry Z or #; the key to these is not given. Brackets with × count equal records among those shown.
# Test system: L1210 leukemia ip in BDF1 mice, survival T/C
# Test: NCI In Vivo Anticancer Drug Screen. Data for tumor model L1210 Leukemia (intraperitoneal) in B6D2F1 (BDF1) mice
# Settings: T/C endpoint: mean survival time, higher T/C = longer survival
compound,measurement,setting,value
ClCCNCCCl,T/C,"dose: 2.5 mg/kg/injection, schedule: Q#A X034 (ip), vehicle: saline",93 % of control [survivor count not shown]
same,T/C,"dose: 3.0 mg/kg/injection, schedule: Q01DX Z (ip), vehicle: saline",94 % of control [survivor count not shown]
same,T/C,"dose: 5.0 mg/kg/injection, schedule: Q01DX017 (ip), vehicle: saline",107 % of control [survivor count not shown]
same,T/C,"dose: 5.0 mg/kg/injection, schedule: Q01DX Z (ip), vehicle: saline",101 % of control [survivor count not shown]
same,T/C,"dose: 5.0 mg/kg/injection, schedule: Q02DX009 (ip), vehicle: saline",102 % of control [survivor count not shown]
same,T/C,"dose: 5.0 mg/kg/injection, schedule: Q#A X034 (ip), vehicle: saline",100 % of control [survivor count not shown]
same,T/C,"dose: 5.0 mg/kg/injection, schedule: Q#A X Z (ip), vehicle: saline",104 % of control [survivor count not shown]
same,T/C,"dose: 5.4 mg/kg/injection, schedule: Q03HX008 (ip), vehicle: steroid suspending solution",105 % of control [survivor count not shown]
same,T/C,"dose: 7.7 mg/kg/injection, schedule: Q03HX008 (ip), vehicle: steroid suspending solution",111 % of control [survivor count not shown]
same,T/C,"dose: 8.4 mg/kg/injection, schedule: Q01DX Z (ip), vehicle: saline",112 % of control [survivor count not shown]
same,T/C,"dose: 10.0 mg/kg/injection, schedule: Q01DX017 (ip), vehicle: saline",115 % of control [survivor count not shown]
same,T/C,"dose: 10.0 mg/kg/injection, schedule: Q01DX Z (im), vehicle: saline",108 % of control [survivor count not shown]
same,T/C,"dose: 10.0 mg/kg/injection, schedule: Q01DX Z (ip), vehicle: saline",100 % of control [survivor count not shown]
same,T/C,"dose: 10.0 mg/kg/injection, schedule: Q01DX Z (sc), vehicle: saline",102 % of control [survivor count not shown]
same,T/C,"dose: 10.0 mg/kg/injection, schedule: Q02DX009 (ip), vehicle: saline",103 % of control [survivor count not shown]
same,T/C,"dose: 10.0 mg/kg/injection, schedule: Q#A X034 (ip), vehicle: saline",103 % of control [survivor count not shown]
same,T/C,"dose: 10.0 mg/kg/injection, schedule: Q#A X Z (ip), vehicle: saline",95 % of control [survivor count not shown]
same,T/C,"dose: 11.1 mg/kg/injection, schedule: Q01DX001 (ip), vehicle: steroid suspending solution",94 % of control [survivor count not shown]
same,T/C,"dose: 11.1 mg/kg/injection, schedule: Q03HX008 (ip), vehicle: steroid suspending solution",122 % of control [survivor count not shown]
same,T/C,"dose: 12.5 mg/kg/injection, schedule: Q01DX001 (ip), vehicle: steroid suspending solution",109 % of control [survivor count not shown]
same,T/C,"dose: 12.5 mg/kg/injection, schedule: Q01DX Z (ip), vehicle: carboxymethylcellulose (CMC)",97 % of control [survivor count not shown]
same,T/C,"dose: 14.0 mg/kg/injection, schedule: Q01DX Z (ip), vehicle: saline",111 % of control [survivor count not shown]
same,T/C,"dose: 15.8 mg/kg/injection, schedule: Q01DX001 (ip), vehicle: steroid suspending solution",97 % of control [survivor count not shown]
same,T/C,"dose: 15.8 mg/kg/injection, schedule: Q03HX008 (ip), vehicle: steroid suspending solution",136 % of control [survivor count not shown]
same,T/C,"dose: 18.8 mg/kg/injection, schedule: Q01DX009 (ip), vehicle: saline",97 [survivor count not shown] and 103 % of control [survivor count not shown]
same,T/C,"dose: 18.8 mg/kg/injection, schedule: Q01DX010 (ip), vehicle: saline",100 [survivor count not shown] and 103 % of control [survivor count not shown]
same,T/C,"dose: 20.0 mg/kg/injection, schedule: Q01DX017 (ip), vehicle: saline",111 % of control [survivor count not shown]
same,T/C,"dose: 20.0 mg/kg/injection, schedule: Q01DX Z (im), vehicle: saline",96 % of control [survivor count not shown]
same,T/C,"dose: 20.0 mg/kg/injection, schedule: Q01DX Z (ip), vehicle: saline",103 % of control [survivor count not shown]
same,T/C,"dose: 20.0 mg/kg/injection, schedule: Q01DX Z (sc), vehicle: saline",103 % of control [survivor count not shown]
same,T/C,"dose: 20.0 mg/kg/injection, schedule: Q02DX009 (ip), vehicle: saline",111 % of control [survivor count not shown]
same,T/C,"dose: 20.0 mg/kg/injection, schedule: Q#A X034 (ip), vehicle: saline",117 % of control [survivor count not shown]
same,T/C,"dose: 20.0 mg/kg/injection, schedule: Q#A X Z (ip), vehicle: saline",91 % of control [survivor count not shown]
same,T/C,"dose: 22.6 mg/kg/injection, schedule: Q01DX001 (ip), vehicle: steroid suspending solution",100 % of control [survivor count not shown]
same,T/C,"dose: 22.6 mg/kg/injection, schedule: Q03HX008 (ip), vehicle: steroid suspending solution",96 % of control [survivor count not shown]
same,T/C,"dose: 23.0 mg/kg/injection, schedule: Q01DX Z (ip), vehicle: saline",116 % of control [survivor count not shown]
same,T/C,"dose: 25.0 mg/kg/injection, schedule: Q01DX001 (ip), vehicle: steroid suspending solution",113 % of control [survivor count not shown]
same,T/C,"dose: 25.0 mg/kg/injection, schedule: Q01DX Z (ip), vehicle: carboxymethylcellulose (CMC)",95 % of control [survivor count not shown]
same,T/C,"dose: 25.0 mg/kg/injection, schedule: Q03HX008 (ip), vehicle: steroid suspending solution",113 % of control [survivor count not shown]
same,T/C,"dose: 32.3 mg/kg/injection, schedule: Q01DX001 (ip), vehicle: steroid suspending solution",116 % of control [survivor count not shown]
same,T/C,"dose: 37.5 mg/kg/injection, schedule: Q01DX001 (ip), vehicle: saline",107 % of control [survivor count not shown]
same,T/C,"dose: 37.5 mg/kg/injection, schedule: Q01DX009 (ip), vehicle: saline",125 [survivor count not shown] and 133 % of control [survivor count not shown]
same,T/C,"dose: 37.5 mg/kg/injection, schedule: Q01DX010 (ip), vehicle: saline",123 [survivor count not shown] and 135 % of control [survivor count not shown]
same,T/C,"dose: 40.0 mg/kg/injection, schedule: Q01DX017 (ip), vehicle: saline",145 % of control [survivor count not shown]
same,T/C,"dose: 40.0 mg/kg/injection, schedule: Q01DX Z (im), vehicle: saline",94 % of control [survivor count not shown]
same,T/C,"dose: 40.0 mg/kg/injection, schedule: Q01DX Z (ip), vehicle: saline",97 % of control [survivor count not shown]
same,T/C,"dose: 40.0 mg/kg/injection, schedule: Q01DX Z (sc), vehicle: saline",102 % of control [survivor count not shown]
same,T/C,"dose: 40.0 mg/kg/injection, schedule: Q02DX009 (ip), vehicle: saline",123 % of control [survivor count not shown]
same,T/C,"dose: 40.0 mg/kg/injection, schedule: Q#A X034 (ip), vehicle: saline",123 % of control [survivor count not shown]
same,T/C,"dose: 40.0 mg/kg/injection, schedule: Q#A X Z (ip), vehicle: saline",98 [survivor count not shown] and 111 % of control [survivor count not shown]
same,T/C,"dose: 46.1 mg/kg/injection, schedule: Q01DX001 (ip), vehicle: steroid suspending solution",119 % of control [survivor count not shown]
same,T/C,"dose: 50.0 mg/kg/injection, schedule: Q01DX001 (ip), vehicle: steroid suspending solution",125 % of control [survivor count not shown]
same,T/C,"dose: 50.0 mg/kg/injection, schedule: Q01DX Z (ip), vehicle: carboxymethylcellulose (CMC)",137 % of control [survivor count not shown]
same,T/C,"dose: 50.0 mg/kg/injection, schedule: Q01DX Z (oral), vehicle: saline",103 % of control [survivor count not shown]
same,T/C,"dose: 50.0 mg/kg/injection, schedule: Q03HX008 (ip), vehicle: steroid suspending solution",113 % of control [survivor count not shown]
same,T/C,"dose: 60.0 mg/kg/injection, schedule: Q03DX Z (ip), vehicle: saline",97 % of control [survivor count not shown]
same,T/C,"dose: 60.0 mg/kg/injection, schedule: Q#A X Z (ip), vehicle: saline",109 % of control [survivor count not shown]
same,T/C,"dose: 65.9 mg/kg/injection, schedule: Q01DX001 (ip), vehicle: steroid suspending solution",139 % of control [survivor count not shown]
same,T/C,"dose: 75.0 mg/kg/injection, schedule: Q01DX001 (ip), vehicle: saline",127 [survivor count not shown] and 136 % of control [survivor count not shown]
same,T/C,"dose: 75.0 mg/kg/injection, schedule: Q01DX009 (ip), vehicle: saline",105 [survivor count not shown] and 117 % of control [survivor count not shown]
same,T/C,"dose: 75.0 mg/kg/injection, schedule: Q01DX010 (ip), vehicle: saline",106 [survivor count not shown] and 140 % of control [survivor count not shown]
same,T/C,"dose: 80.0 mg/kg/injection, schedule: Q01DX017 (ip), vehicle: saline",142 % of control [survivor count not shown]
same,T/C,"dose: 80.0 mg/kg/injection, schedule: Q01DX Z (im), vehicle: saline",97 % of control [survivor count not shown]
same,T/C,"dose: 80.0 mg/kg/injection, schedule: Q01DX Z (ip), vehicle: saline",102 % of control [survivor count not shown]
same,T/C,"dose: 80.0 mg/kg/injection, schedule: Q01DX Z (sc), vehicle: saline",103 % of control [survivor count not shown]
same,T/C,"dose: 80.0 mg/kg/injection, schedule: Q02DX009 (ip), vehicle: saline",179 % of control [survivor count not shown]
same,T/C,"dose: 80.0 mg/kg/injection, schedule: Q#A X Z (ip), vehicle: saline",91 % of control [survivor count not shown]
same,T/C,"dose: 90.0 mg/kg/injection, schedule: Q#A X Z (ip), vehicle: saline",117 % of control [survivor count not shown]
same,T/C,"dose: 94.2 mg/kg/injection, schedule: Q01DX001 (ip), vehicle: steroid suspending solution",135 % of control [survivor count not shown]
same,T/C,"dose: 100.0 mg/kg/injection, schedule: Q01DX Z (ip), vehicle: carboxymethylcellulose (CMC)",134 % of control [survivor count not shown]
same,T/C,"dose: 100.0 mg/kg/injection, schedule: Q01DX Z (oral), vehicle: saline",102 % of control [survivor count not shown]
same,T/C,"dose: 100.0 mg/kg/injection, schedule: Q03HX008 (ip), vehicle: steroid suspending solution",110 % of control [survivor count not shown]
same,T/C,"dose: 120.0 mg/kg/injection, schedule: Q03DX Z (ip), vehicle: saline",97 % of control [survivor count not shown]
same,T/C,"dose: 125.0 mg/kg/injection, schedule: Q01DX001 (ip), vehicle: saline",94 [survivor count not shown] and 101 % of control [survivor count not shown]
same,T/C,"dose: 125.0 mg/kg/injection, schedule: Q07DX Z (ip), vehicle: saline",100 % of control [survivor count not shown]
same,T/C,"dose: 125.0 mg/kg/injection, schedule: Q#A X Z (ip), vehicle: saline",100 % of control [survivor count not shown]
same,T/C,"dose: 150.0 mg/kg/injection, schedule: Q01DX001 (ip), vehicle: saline",106 % of control [survivor count not shown]
same,T/C,"dose: 150.0 mg/kg/injection, schedule: Q01DX009 (ip), vehicle: saline",87 % of control [survivor count not shown]
same,T/C,"dose: 160.0 mg/kg/injection, schedule: Q01DX Z (im), vehicle: saline",89 % of control [survivor count not shown] (2×)
same,T/C,"dose: 160.0 mg/kg/injection, schedule: Q01DX Z (ip), vehicle: saline",97 [survivor count not shown] and 100 % of control [survivor count not shown]
same,T/C,"dose: 160.0 mg/kg/injection, schedule: Q01DX Z (sc), vehicle: saline",94 [survivor count not shown] and 95 % of control [survivor count not shown]
same,T/C,"dose: 160.0 mg/kg/injection, schedule: Q02DX009 (ip), vehicle: saline",101 % of control [survivor count not shown]
same,T/C,"dose: 200.0 mg/kg/injection, schedule: Q01DX Z (oral), vehicle: saline",108 % of control [survivor count not shown]
same,T/C,"dose: 240.0 mg/kg/injection, schedule: Q01DX Z (im), vehicle: saline",94 % of control [survivor count not shown]
same,T/C,"dose: 240.0 mg/kg/injection, schedule: Q01DX Z (sc), vehicle: saline",89 % of control [survivor count not shown]
same,T/C,"dose: 250.0 mg/kg/injection, schedule: Q01DX001 (ip), vehicle: saline",102 [survivor count not shown] and 103 % of control [survivor count not shown]
same,T/C,"dose: 250.0 mg/kg/injection, schedule: Q07DX Z (ip), vehicle: saline",89 % of control [survivor count not shown]
same,T/C,"dose: 360.0 mg/kg/injection, schedule: Q01DX Z (im), vehicle: saline",97 % of control [survivor count not shown]
same,T/C,"dose: 360.0 mg/kg/injection, schedule: Q01DX Z (sc), vehicle: saline",91 % of control [survivor count not shown]
same,T/C,"dose: 400.0 mg/kg/injection, schedule: Q01DX Z (oral), vehicle: saline",103 % of control [survivor count not shown]
same,T/C,"dose: 500.0 mg/kg/injection, schedule: Q01DX001 (ip), vehicle: saline",103 % of control [survivor count not shown]
same,T/C,"dose: 500.0 mg/kg/injection, schedule: Q01DX Z (im), vehicle: saline",95 % of control [survivor count not shown]
same,T/C,"dose: 1000.0 mg/kg/injection, schedule: Q01DX001 (ip), vehicle: saline",86 % of control [survivor count not shown]
